Results are given in words; binding and its absence hold for the method and conditions named. For part of these data: A result given as binding can be weak or reduced; the word gives no strength. Blank lines part the entries; values can stand above or below the binder they belong to.
Key:
Experiment in all cases: two-hybrid
[1] = molecular target: Cep162-C (448-897 aa) (Drosophila melanogaster)
[2] = molecular target: Cep162-FL (Drosophila melanogaster)
[3] = molecular target: Cep162-N (1-447 aa) (Drosophila melanogaster)

- binding [1]: binds
B1: Cep131-C1 (782-1114 aa) (domain or fragment, UniProt A1Z7Z9 782-1114)
chain: EAEINKMNCDHQREVTELKRTHQMQLLDALEEARTKHEQIETSIRESCAQDREAIIEKERTAIRERFERQLEEEQRTQAEQRQKLTEEFAAERDRLQSELRQRENEHQARRQEALREQEQELEQAKFEMQERMAKQEEKYQNRVNTIEQQYQADFELWKTEHENKTKLAQAEKENAIRQHYRAERDRQLDELVVRMEADALQHKEEHELKMNRLKEKYEKDLVLAESVEKSLREKYAETRGKLAEADAQVRNSQAEVKQLQLELSHSKKMCGDIIMERDRLRDNLNADIQSELGVLNERHKQEMDQLQKRVHQTIQRQEETIEILKGDNDALR

- binding [1]: binds
- binding [2]: binds
- binding [3]: no binding
B2: Cep131-FL (1-1114 aa) (protein, UniProt A1Z7Z9 1-1134)
chain: MDLCLKGSQINLATRQKTKPKYTSRSLTTLHNPCPHFRPRSANFLQQRSRSSPFLGRPQSADPKFGRRLSNYFVEKELRNGGKRQVSSNDLLKSLLEEPIKRSWLCRSTCNSSESDYSLHKRTPDSSEEGEQFLVNMPVGEKVKSYSSYSGNQGLSNGALLQRTAKPDLPGRVSFSKPNMHADLDSSDCDNDKQEVRPSISAPGPLTLPSFLSKVEQADPVGQKKSVHFGSTAAEGEVLAETYEYPKCPSENCTCSTRSSSTTSTNEASASDVKCACDAPSCRFMESSKQVEPTSPTPTLPKAPSSELDVIREYKQAVEGVQVVKNHLGTDTLNNIEILPNYLDKYASPTKEKQNNLSETKNMATNSSAVNNGSVVYRPVGNPRNFGAENNFLPAVQDDRRSFANGSSDGVINNYLKVASTPPFVGKKKENVKPASADPIARSSKSKVTKSTINPAPLGKMKKAISVGSLREERKLSEYNLDKVDSWMSMQDQKQYDGKHKPGLEDLDEAQDNDTASQLSLKSNEDSRDSTYDEIVSVIKEIEEDKKRDNFSEGIPSELNLNLDSRCETADTVTVSEGKVPESGDKYKDILAYLNNVESSCDKTLMETRRSIPDSNRSEVEFVVEPDVTDEVPKLSELLMLPNHQLARRVIALSLRANELANAIHMSKEHVFQLRGEKQKSLRAEKSTAAAKLRDQKKHYEEVVTRHQGFIEQLLKDKGSLCEKVAALTRRLESQNQAWEHRLETELARTKETTMAGEKIRRERWVRENTKKIKELTVKGLEAEINKMNCDHQREVTELKRTHQMQLLDALEEARTKHEQIETSIRESCAQDREAIIEKERTAIRERFERQLEEEQRTQAEQRQKLTEEFAAERDRLQSELRQRENEHQARRQEALREQEQELEQAKFEMQERMAKQEEKYQNRVNTIEQQYQADFELWKTEHENKTKLAQAEKENAIRQHYRAERDRQLDELVVRMEADALQHKEEHELKMNRLKEKYEKDLVLAESVEKSLREKYAETRGKLAEADAQVRNSQAEVKQLQLELSHSKKMCGDIIMERDRLRDNLNADIQSELGVLNERHKQEMDQLQKRVHQTIQRQEETIEILKGDNDALRQQCLKLNAVIRQQRKDYCVK

- binding [1]: no binding
B3: Cep131-M1 (481-781 aa) (domain or fragment, UniProt A1Z7Z9 481-781)
chain: LDKVDSWMSMQDQKQYDGKHKPGLEDLDEAQDNDTASQLSLKSNEDSRDSTYDEIVSVIKEIEEDKKRDNFSEGIPSELNLNLDSRCETADTVTVSEGKVPESGDKYKDILAYLNNVESSCDKTLMETRRSIPDSNRSEVEFVVEPDVTDEVPKLSELLMLPNHQLARRVIALSLRANELANAIHMSKEHVFQLRGEKQKSLRAEKSTAAAKLRDQKKHYEEVVTRHQGFIEQLLKDKGSLCEKVAALTRRLESQNQAWEHRLETELARTKETTMAGEKIRRERWVRENTKKIKELTVKGL

- binding [1]: binds
B4: Cep131-N1 (1-480 aa) (domain or fragment, UniProt A1Z7Z9 1-480)
chain: MDLCLKGSQINLATRQKTKPKYTSRSLTTLHNPCPHFRPRSANFLQQRSRSSPFLGRPQSADPKFGRRLSNYFVEKELRNGGKRQVSSNDLLKSLLEEPIKRSWLCRSTCNSSESDYSLHKRTPDSSEEGEQFLVNMPVGEKVKSYSSYSGNQGLSNGALLQRTAKPDLPGRVSFSKPNMHADLDSSDCDNDKQEVRPSISAPGPLTLPSFLSKVEQADPVGQKKSVHFGSTAAEGEVLAETYEYPKCPSENCTCSTRSSSTTSTNEASASDVKCACDAPSCRFMESSKQVEPTSPTPTLPKAPSSELDVIREYKQAVEGVQVVKNHLGTDTLNNIEILPNYLDKYASPTKEKQNNLSETKNMATNSSAVNNGSVVYRPVGNPRNFGAENNFLPAVQDDRRSFANGSSDGVINNYLKVASTPPFVGKKKENVKPASADPIARSSKSKVTKSTINPAPLGKMKKAISVGSLREERKLSEYN

Reference: doi:10.1101/2023.09.12.557303
